The whole screen tested about 340,000 compounds, of which about 170 (0.05%) were called active. Inconclusive means that the source gave no clear call. Such entries were picked first, then a sample of the others. Calls follow the shape of the dose curve; as a rule, active = well fitted inhibition curve with a large enough effect in the signal ratio, with a control signal flat (not every such curve was filed as active); inconclusive = small, poorly fitted or top-dose-only effect, or effect the other way, or a change in a side signal; inactive = flat fitted curve, though single readings scatter; the % refers to the signal ratio. Where the call is inconclusive, the potency comes from a doubtful curve fit.
assay: qHTS Assay to Find Inhibitors of Chronic Active B-Cell Receptor Signaling; conditions: ABC-DLBCL IkBa-CBG/CBR reporter, luminescence ratio (green luciferase fused to IkBa over red control in TMD8 lymphoma cells), 4 h; activity change, negative = inhibition: at 46.1 µM (top of the series);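 as to activity change, negative = inhibition: plate controls were basal doxycycline-induced cells for no effect and cells given 10 µM MG132 for full effect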
Procedure, shortened: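 Doxycycline induced both beetle luciferases in TMD8 lymphoma cells; IKK-driven degradation limits the IkappaBalpha-fused green signal, while red luminescence normalises for cell number and nonspecific effects. Compounds tested up to 46 uM, 4 hrs.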
Potency is read from the fitted curve at half-maximal effect.

Row | Compound | Potency | activity change, negative = inhibition
1 | COc1cc(C2c3sc(=O)[nH]c3SC3C(=O)N(c4ccc(Br)cc4)C(=O)C32)ccc1O (stereo unspecified) | inconclusive: 12.6 µM [falling, partial curve, poor fit] | –
2 | Cc1nc(=O)c(-c2ccccc2)c(C)n1CCCCCC(=O)O | – | inconclusive: 4.72%
3 | Cc1ccc(N=Cc2ccc[nH]2)c(O)c1 | – | inactive: 3.42%
4 | COc1ccc(NC(=O)N(CCO)Cc2cc3c(C)cc(C)cc3[nH]c2=O)cc1 | – | inconclusive: -1.71%
5 | CCCc1[nH]n(-c2nc3ccccc3s2)c(=O)c1C=NCCCN(CC)CC | inconclusive: 35.5 µM [rising, single point] | –
6 | COc1ccc(/C=N\NC(=O)c2cc(O)c(O)c(O)c2)cc1COc1ccc(C(=O)OCC(C)C)cc1 | – | inconclusive: -8.38%
7 | O=C(C1CCN(S(=O)(=O)c2cccc3nonc23)CC1)N1CCN(c2cccc(Cl)c2)CC1 | – | inactive: 7.89%
8 | Nc1nc(SCC(=O)Nc2ccc(Cl)cc2)[nH]c(=O)c1-c1ccccc1 | – | inconclusive: 2.56%
9 | CN(C)c1ccc(/C=N/N2CCN(c3ccccn3)CC2)cc1 | – | inconclusive: 14%
10 | CCOC(=O)c1sc(NC(=O)CN2C(=O)NC3(CC(C)CC(C)(C)C3)C2=O)c(C(=O)OCC)c1C (stereo unspecified) | – | inconclusive: 15.3%
11 | O=C(O)c1ccc(NC2=C(n3nnc4ccccc43)C(=O)c3ccccc3C2=O)cc1 | – | inconclusive: -10.8%
12 | Oc1ccc(Cl)cc1CNCC1CCCO1 (stereo unspecified) | – | inconclusive: 3.62%
13 | Cc1cccc(-c2nsc(SCC(=O)Nc3cc(C)on3)n2)c1 | – | inconclusive: 10.1%
14 | O=C(COCc1ccccc1)N[C@@H](Cc1ccc(O)cc1)C(=O)O | – | inactive: -1.71%
15 | CC(=O)Nc1ccc(S(=O)(=O)N2CCC(NC(=O)C(Cc3cccc(F)c3)NC(C)=O)CC2)cc1 (stereo unspecified) | – | inconclusive: 0.25%
16 | O=C(COC(=O)Cc1ccc(-c2ccccc2)cc1)NCc1ccccc1 | – | inconclusive: -0.981%
17 | O=C(NCCc1ccccc1)c1cccnc1N1CCCCCC1 | – | inactive: -6.63%
18 | CC1(CCc2ccc3c(c2)OCO3)NCCc2c1[nH]c1ccccc21 (stereo unspecified) | – | inactive: -15.4%
19 | Cc1cc(C)n(CCCNC(=O)C(C)(C)Oc2ccc(Cl)cc2)n1 | – | inconclusive: -6.11%
20 | C=CCC1S/C(=N/N=C/c2cccs2)NC1=O (stereo unspecified) | inconclusive: 31.6 µM [falling, single point] | –
21 | COc1ccc2sc(N(Cc3cccnc3)C(=O)C3CCCCC3)nc2c1 | – | inactive: 0.437%

Row | Compound | Potency | activity change, negative = inhibition
22 | COc1ccc(CC(=O)OCC(=O)Nc2ccc(C(=O)Nc3ccc(OC)cc3)cc2)cc1 | – | inconclusive: -7.09%
23 | O=C(NC1CCCCCC1)c1cc2c(=O)n3ccccc3nc2s1 | – | inconclusive: -14.9%
24 | CC(=O)c1cccc(N(C(=O)c2ccco2)C(C(=O)NC2CCCC2)c2ccc(N3CCOCC3)cc2)c1 (stereo unspecified) | – | inconclusive: -0.414%
25 | O=C(c1ccc(F)cc1)C(CCCCCC(CN1CCOCC1)C(=O)c1ccc(F)cc1)CN1CCOCC1 (stereo unspecified) | – | inconclusive: -0.0434%
26 | CCOC(=O)C1(Cc2cccc(Cl)c2)CCCN(C(=O)c2ccoc2C)C1 (stereo unspecified) | – | inactive: 0.0797%
27 | CCN(CC)S(=O)(=O)c1cc(C(=O)Nc2ccccc2[N+](=O)[O-])ccc1Cl | – | inconclusive: -13.8%
28 | O=c1c2cc(F)ccc2sn1-c1ccc(F)cc1 | – | inconclusive: 210% [cytotoxic]
29 | COc1ccc(C(=O)NCC2(c3ccccc3)CCCC2)c(OC)c1 | – | inconclusive: -3.45%
30 | O=C(Nc1cccc(C(=O)N2CCOCC2)c1)NC1CCCCC1 | – | inconclusive: 5.6%
31 | C[C@@H]1CN([C@H](C)CO)C(=O)Cc2cc(NC(=O)Nc3ccccc3)ccc2O[C@@H]1CN(C)Cc1ccc2c(c1)OCO2 | – | inactive: -2.84%
32 | C[C@H](CO)N1C[C@H](C)[C@@H](CN(C)Cc2ccc(-c3ccccc3)cc2)Oc2c(NS(=O)(=O)c3cccs3)cccc2C1=O | – | inactive: -1.34%
33 | O=C(c1ccc(COc2ccc(Cl)cc2Cl)o1)N1CCCC1 | – | inconclusive: -3.13%
34 | C[C@@H]1[C@H](O)C[C@@]23COC(=O)C2=CCCC3[C@@]1(C)CCC1COC(=O)C1 (stereo partly specified) | – | inconclusive: 4.52%
35 | CC(C)(C)OC(=O)NCc1ccc(CNC(=O)c2[nH]cnc2C(=O)N[C@@H](Cc2ccccc2)C(=O)OC(C)(C)C)cc1 | – | inactive: 21.5%
36 | COc1cccc(/C=C/C(=O)Nc2cc(S(=O)(=O)N3CCOCC3)ccc2OC)c1 | inconclusive: 4.61 µM [falling, full curve] | –
37 | NS(=O)(=O)c1ccc(Sc2nc3ccccc3s2)c([N+](=O)[O-])c1 | inconclusive: 35.5 µM [rising, partial curve] | –
38 | CCOC(=O)CN1C(=O)C(O)(CC(=O)c2ccco2)c2ccccc21 (stereo unspecified) | – | inactive: 1.33%
39 | COc1ccc(/C=N/Nc2nc3ccccc3c(=O)[nH]2)cc1 | inconclusive: 35.5 µM [rising, single point] | –
40 | Cc1ccc(-c2c(C(=O)NNC(=S)NCC3CCCO3)csc2C)cc1 (stereo unspecified) | inconclusive: 15.8 µM [falling, partial curve, poor fit] | –
41 | COc1ccc2c(c1)[C@H]1[C@H](CO2)[C@H](c2ccccc2)[C@]2(C)C(=O)Nc3cc(F)ccc3C(=O)N12 | – | inconclusive: 0.65%

Individual results from the list:
For activity change, negative = inhibition, `COc1ccc2c(c1)[C@H]1[C@H](CO2)[C@H](c2ccccc2)[C@]2(C)C(=O)Nc3cc(F)ccc3C(=O)N12` has the entry inconclusive: 0.65%
For activity change, negative = inhibition, `COc1ccc(CC(=O)OCC(=O)Nc2ccc(C(=O)Nc3ccc(OC)cc3)cc2)cc1` has the entry inconclusive: -7.09%

— PubChem BioAssay AID493014 (National Center for Advancing Translational Sciences (NCATS), 2011)
